No constants are given. Whether binding was seen depends on the method and setting. Some entries that bind do so weakly or less than the wild type.
Target: DSR2 from Bacillus subtilis 29 R, wild type (Bacillus subtilis 29 R) (UniProt P0DXN8)
Experiment: SEC; gel filtration profiles of purified DSR2 wild type and mutants; column and buffer of this analysis not stated; both purified

binding: binds
B1: DSR2 from Bacillus subtilis 29 R, wild type (enzyme, UniProt P0DXN8 1-1005, looked up)
chain: MVKVDLESKRYGEKLKEVFLMLDNNVVECIKEITESSRNGKLVFFVGAGVSTLSDYPQWWRLVDKYHEELYGSPKKGNYSSDEYLRIPQIFYNVKGEMAFDGILKDFFQVDKPTNPIHDKILAMNPAHVITTNYDNLIDTACWKRGKYFSVISAEEDVANATSSRYLLKVHGDFRKGFKGENVVLKEDDYLNYDQNYPLISNLMKTIIATHTIVFIGYGLGDYNINMLLNWVRKLQKDSFHKPFFIRTDPSPIENETLIYYENKGLRIIDAASLIDSNEYDYLERYSAVMDLLIESQENKFITKDDEVIDYIYGKISPLFALQYIRKIDLKHVFEYDYHFEVNGTVVRHKNKGFGYMERFFELKESCDERSKLSKKQYERFNALFNFFEKNGVICMAKDAGTLNTSIEINSLAYHGKYDVMKKFIEEQSVSIEDDYKKAFFLACLGRWEESYDLYSNIILNSIDESNGCVYYLSQINRYRIYQSITQAVTQFNGLGLLTFGRHYKPFTDEFLARIEREMTNFNIDDLFNGMPFEFQKKYKILEFLSDNQFLYDDTVKLFELTNKVRSEMSEGSYSFGMSSDIVVLLRLYDNLRFLYENCLWSVSFHEFHQYIRNSMSLLIEKAEYERTRDIDELGFSFFGKKSGFFMEYYDFVNISRHFKIDDIKNLERSCSIDKIRFGEQEKIEEYLVGIAEEITKQFSANGMNVVFYTQFISEAKAALYFAKYVKLSEEGLGKIVKALLFYFPERDLDIGKRYVWLERLTKCNELPKSIISIIDDFLVLQAEKHIDQNYSEVSSNGLYSRDYGALIKHFEKNFISKRLSEITLCLTQDKQKQIDFLFKLLPLLSTNAKSHLLSFKSVENINDLMNGIRIGLIDEFTPEHEELIIEYLETRKVNYIVEKEKGIQTFSSNDYMSTFGIWYFLEEINNSKMEEFIGMDDQYDFFVDPENFDYKKFIPSWLKNYNDKLLGKIAGNKHMKHHVIEVLKERVKNSNDKRYLEILMNYFI
notes: DSR2, Sir2 domain-containing NADase, Bacillus subtilis 29 R, WP_029317421, full length (domains described over residues 1-1005); Cloned into pRSF-32M or pET-32M.3C (both add N-terminal thioredoxin and 6xHis); Crosslinked with BS3 for part of the cryo-EM data; also called WT DSR2; wild-type (WT) DSR2; source: E. coli BL21 (DE3), purified (Ni-NTA, size exclusion); for the DSR2-DSAD1 complex …

Reference: article PMC11263360, “The structural basis of the activation and inhibition of DSR2 NADase by phage proteins” (Nature Communications, 2024)
